We go through 16 molecules from PubChem BioAssay AID2685 (National Center for Advancing Translational Sciences (NCATS), 2010).

This experiment can be described thus: qHTS Assay for Lipid Storage Modulators in Drosophila S3 Cells.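 As to cell number change: cells counted by Cell Tracker Red CMTPX staining in the red channel.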 Particulars: BODIPY lipid droplet fluorescence, 18-24 h; for cell number change: measured here: cell count max response, cells fed with added oleic acid. The method, boiled down: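 Laser-scanning cytometry quantifies lipid droplet accumulation (500–530 nm total intensity; droplet/cell object ratio) in oleic acid-fed (400 uM added) Drosophila S3 cells treated with a concentration series. 20 uM Triacsin C defined 100% inhibition.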
On the technique in general: qHTS replaces the single test concentration by a dilution series.

The mark [1] stands for this setting: measured here: cell number channel AC50, cells fed with added oleic acid.
Where [2] appears, read: measured here: lipid fluorescence (Fed channel) AC50, cells fed with added oleic acid.

Some of the results follow. Further columns of the screen follow, without active or inactive calls. The list favours compounds with an active or inconclusive main result. Words in brackets tell the shape of the fitted curve; partial curves, single points and poor fits give uncertain potencies.

As usually defined, the AC50 is the concentration giving half of the maximal activity seen. Higher therefore signals weaker potency.

Regarding `CN(N)c1nc2ccccc2nc1C(F)(F)F`, the cell number change was -10.3%. Moreover, the AC50 under setting [1] is 6.51 µM [falling, single point].
In the case of `CC(C)(C)c1ccc(NC(=S)NCc2cccs2)cc1`, the cell number change was -76.7%. Also, the AC50 under setting [1] is 5.17 µM [falling, partial curve, poor fit].
Consider `O=S(=O)(Nc1ncccn1)c1ccc(NC(=S)NCc2cccnc2)cc1`, for which the cell number change was determined as 7.31%. Further, the AC50 under setting [1] is 0.411 µM [falling, single point]. Moreover, the AC50 under setting [2] was 0.58 µM [falling, single point].
Take `O=C(COc1ccccc1)Nc1ccc(S(=O)(=O)Nc2ncccn2)cc1`: the cell number change was -35.4%. Also, the AC50 under setting [1] is 0.731 µM [falling, partial curve, poor fit]. Also, the AC50 under setting [2] was 0.58 µM [falling, full curve].
For `Cc1ccccc1CSCC(=O)c1c(N)n(C)c(=O)n(C)c1=O`, the cell number change turned out to be 151%. Besides, the concentration at half-maximal activity (AC50) under setting [1] was 8.2 µM [rising, partial curve]. Under setting [2], the AC50 was 6.51 µM [rising, partial curve].
`CCN(CC)S(=O)(=O)c1ccc(N2CCOCC2)c(NC(=O)C2CC2)c1`: the cell number change was 22.1%.
Take `O=C(CCC1CCCC1)N1CCN(C(=O)c2ccco2)CC1`: the cell number change was 18%. Under setting [1], the AC50 was 0.58 µM [rising, partial curve]. Moreover, under setting [2], the concentration at half-maximal activity (AC50) is 6.51 µM [rising, partial curve, poor fit].
As for `COc1cc(/C=N/NC(=O)Cn2ccc(C(F)(F)F)n2)cc(OC)c1OC`, the cell number change worked out at 18.6%. Moreover, the AC50 under setting [1] is 0.00517 µM [rising, full curve, poor fit]. The AC50 under setting [2] was 6.51 µM [rising, partial curve].
Take `Clc1ccc(C(c2nnnn2CCc2ccccc2)N2CCSCC2)cc1` (centres undefined): the cell number change is 117%. Besides, the half-maximal activity concentration (AC50) under setting [1] was 20.6 µM [rising, partial curve].
With `COc1cccc(-c2c(-c3cc(OC)cc(OC)c3)n(C)c3ccc(-c4cnc(OC)nc4)cc23)c1`, the cell number change is -7.44%. Further, under setting [2], the AC50 is 20.6 µM [falling, single point].
For the molecule `O=C(Cn1ccnc1)c1ccc(O)c(O)c1`, the cell number change was determined as 11%. Also, the half-maximal activity concentration (AC50) under setting [2] was 18.4 µM [rising, partial curve].
Consider `O=C(Cc1ccccc1)Nc1ccc(N2CCN(Cc3ccccc3F)CC2)cc1`, for which, under setting [2], the AC50 is 6.51 µM [falling, single point].
As for `N/C(=N\OC(=O)c1ccc(Cl)cc1Cl)c1ccc(Cl)cc1`, the cell number change turned out to be 1.63%. For the same molecule, under setting [1], the AC50 is 4.61 µM [rising, single point].
As to `COc1ccc(OC)c(/C=N/NC(=O)c2ccncc2)c1`, the cell number change worked out at 2.55%. The AC50 under setting [2] was 6.51 µM [rising, single point].
For the molecule `Cc1nc(NC(=O)c2ccc(Cl)cc2)nc2cc3c(cc12)OCO3`, the AC50 under setting [2] is 0.058 µM [rising, full curve].
As to `CCn1c(SCC(=O)NC2CCCCC2)nnc1-c1ccccn1`, the cell number change is 25.2%. Besides, the concentration at half-maximal activity (AC50) under setting [2] is 1.64 µM [falling, partial curve, poor fit].
